# Measured values: article PMC6204045
# By UniProt entry, the sequences of proteins in these tests, tags left out. Where a name states a change or a piece, a line headed by the entry shows the natural chain unless it says otherwise.
# UniProt Q5S007: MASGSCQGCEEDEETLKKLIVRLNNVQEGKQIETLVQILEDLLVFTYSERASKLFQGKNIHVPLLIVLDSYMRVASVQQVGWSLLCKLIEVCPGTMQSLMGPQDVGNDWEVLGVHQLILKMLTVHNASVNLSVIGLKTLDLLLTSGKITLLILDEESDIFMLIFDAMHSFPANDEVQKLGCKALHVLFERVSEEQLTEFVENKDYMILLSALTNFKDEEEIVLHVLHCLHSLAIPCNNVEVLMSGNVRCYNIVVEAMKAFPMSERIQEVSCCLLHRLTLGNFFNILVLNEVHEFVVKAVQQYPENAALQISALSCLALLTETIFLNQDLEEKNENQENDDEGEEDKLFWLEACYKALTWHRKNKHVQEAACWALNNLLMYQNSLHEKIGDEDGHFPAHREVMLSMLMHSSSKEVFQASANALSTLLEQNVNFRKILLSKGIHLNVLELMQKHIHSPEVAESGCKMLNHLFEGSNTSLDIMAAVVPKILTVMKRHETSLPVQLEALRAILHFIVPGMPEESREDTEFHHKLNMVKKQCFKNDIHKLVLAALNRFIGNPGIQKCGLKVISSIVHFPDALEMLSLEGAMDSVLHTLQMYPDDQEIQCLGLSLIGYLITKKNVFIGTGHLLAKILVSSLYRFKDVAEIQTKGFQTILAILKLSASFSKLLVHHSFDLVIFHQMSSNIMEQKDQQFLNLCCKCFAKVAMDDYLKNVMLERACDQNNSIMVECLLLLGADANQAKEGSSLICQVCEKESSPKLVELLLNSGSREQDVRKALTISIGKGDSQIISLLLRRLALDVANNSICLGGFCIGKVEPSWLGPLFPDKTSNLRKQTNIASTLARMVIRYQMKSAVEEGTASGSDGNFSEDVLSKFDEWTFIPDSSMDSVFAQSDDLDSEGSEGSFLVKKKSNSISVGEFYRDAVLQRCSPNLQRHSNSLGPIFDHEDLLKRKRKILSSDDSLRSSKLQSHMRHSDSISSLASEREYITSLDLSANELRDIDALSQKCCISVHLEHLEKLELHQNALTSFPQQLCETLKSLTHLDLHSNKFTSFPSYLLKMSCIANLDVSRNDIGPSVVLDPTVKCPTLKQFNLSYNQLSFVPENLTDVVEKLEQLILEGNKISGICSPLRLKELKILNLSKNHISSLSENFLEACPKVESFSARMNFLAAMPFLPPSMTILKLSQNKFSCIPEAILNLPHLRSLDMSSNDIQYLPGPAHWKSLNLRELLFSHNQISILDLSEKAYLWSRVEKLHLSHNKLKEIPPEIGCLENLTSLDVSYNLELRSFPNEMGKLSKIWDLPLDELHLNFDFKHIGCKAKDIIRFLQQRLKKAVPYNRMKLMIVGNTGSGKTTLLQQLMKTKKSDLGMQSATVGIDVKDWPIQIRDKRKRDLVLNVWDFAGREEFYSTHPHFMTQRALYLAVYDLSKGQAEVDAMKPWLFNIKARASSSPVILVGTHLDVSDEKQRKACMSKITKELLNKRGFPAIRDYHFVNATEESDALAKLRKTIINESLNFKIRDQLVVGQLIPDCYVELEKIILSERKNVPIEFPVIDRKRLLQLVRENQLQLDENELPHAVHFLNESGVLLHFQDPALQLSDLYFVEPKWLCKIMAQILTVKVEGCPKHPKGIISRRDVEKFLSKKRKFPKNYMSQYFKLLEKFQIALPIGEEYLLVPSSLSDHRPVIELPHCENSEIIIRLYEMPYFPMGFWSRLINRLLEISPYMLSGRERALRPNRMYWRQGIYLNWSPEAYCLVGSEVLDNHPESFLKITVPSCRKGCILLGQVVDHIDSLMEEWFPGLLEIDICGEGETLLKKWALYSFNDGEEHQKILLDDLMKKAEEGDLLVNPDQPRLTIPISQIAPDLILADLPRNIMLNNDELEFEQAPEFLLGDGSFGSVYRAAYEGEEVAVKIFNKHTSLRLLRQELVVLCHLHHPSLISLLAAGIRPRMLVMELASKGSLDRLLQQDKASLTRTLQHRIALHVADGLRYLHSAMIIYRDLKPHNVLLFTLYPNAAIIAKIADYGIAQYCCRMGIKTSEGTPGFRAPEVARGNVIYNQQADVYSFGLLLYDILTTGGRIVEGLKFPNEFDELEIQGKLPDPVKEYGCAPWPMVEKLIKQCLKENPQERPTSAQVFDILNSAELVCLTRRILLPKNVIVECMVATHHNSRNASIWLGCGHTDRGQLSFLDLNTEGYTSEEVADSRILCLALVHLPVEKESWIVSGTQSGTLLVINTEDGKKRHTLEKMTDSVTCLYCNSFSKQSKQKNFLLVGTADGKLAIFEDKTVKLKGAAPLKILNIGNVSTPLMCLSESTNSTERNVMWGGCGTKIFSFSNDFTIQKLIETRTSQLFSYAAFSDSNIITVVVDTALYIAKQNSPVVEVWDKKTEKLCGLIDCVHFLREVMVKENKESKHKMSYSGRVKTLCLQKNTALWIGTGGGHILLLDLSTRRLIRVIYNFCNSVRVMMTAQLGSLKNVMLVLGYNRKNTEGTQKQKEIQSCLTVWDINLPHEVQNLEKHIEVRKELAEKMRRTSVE
# UniProt P31323: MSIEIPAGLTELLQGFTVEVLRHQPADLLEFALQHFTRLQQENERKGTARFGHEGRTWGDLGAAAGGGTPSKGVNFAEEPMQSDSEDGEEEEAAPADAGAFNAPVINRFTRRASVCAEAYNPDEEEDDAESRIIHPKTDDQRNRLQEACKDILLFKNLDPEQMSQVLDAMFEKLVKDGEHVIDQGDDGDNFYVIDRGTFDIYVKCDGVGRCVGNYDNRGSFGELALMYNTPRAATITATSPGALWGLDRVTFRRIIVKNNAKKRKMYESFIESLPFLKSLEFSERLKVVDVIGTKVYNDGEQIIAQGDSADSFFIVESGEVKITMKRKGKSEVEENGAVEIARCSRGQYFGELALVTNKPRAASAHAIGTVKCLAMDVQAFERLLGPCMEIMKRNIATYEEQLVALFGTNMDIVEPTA
# UniProt P31324: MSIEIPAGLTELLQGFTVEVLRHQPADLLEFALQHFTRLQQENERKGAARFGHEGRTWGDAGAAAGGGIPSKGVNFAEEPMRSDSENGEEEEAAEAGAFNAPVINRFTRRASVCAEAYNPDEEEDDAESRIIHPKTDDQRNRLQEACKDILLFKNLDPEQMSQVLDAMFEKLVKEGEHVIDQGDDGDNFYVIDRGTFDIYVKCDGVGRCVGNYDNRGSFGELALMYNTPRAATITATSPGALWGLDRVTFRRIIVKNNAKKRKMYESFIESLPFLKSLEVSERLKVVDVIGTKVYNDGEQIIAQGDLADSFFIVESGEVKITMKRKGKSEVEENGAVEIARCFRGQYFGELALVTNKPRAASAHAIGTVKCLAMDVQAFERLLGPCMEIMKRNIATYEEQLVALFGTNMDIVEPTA
# These are yes or no findings as the source states them, for the method shown. Binding seen in cells or lysates may run through a third protein. Some binding calls cover weakened binding; strength is not graded here.
# What was measured:
# [1] = molecular target: 3xFlag-tagged LRRK2 G2019S (UniProt Q5S007); test: co-IP; HEK293T co-transfected, harvested 48 h post-transfection; lysis buffer 50 mM Tris pH 7.5, 1% Triton X-100; anti-Flag M2 affinity gel overnight; washes with 0.25 M NaCl; Flag and GFP immunoblotting; cells also treated with GSK2578215A (2 uM, 90 min), forskolin (30 uM, 90 min) or DMSO
# [2] = molecular target: 3xFlag-tagged LRRK2 WT (leucine-rich repeat kinase 2) (UniProt Q5S007); test: as above
# GFP-tagged LRRK2 WT = GFP-tagged LRRK2 WT (UniProt Q5S007); test: pull-down; GFP-tagged protein purified on GFP-trap resin, incubated 2 h with BV2 lysates containing endogenous prey; washes with 0.25 M NaCl; GFP and PKA RIIβ immunoblotting; BV2 cells also treated beforehand with GSK2578215A or DMSO; only the target purified
binding [1],binding [2],binding (GFP-tagged LRRK2 WT),Substance
binds,binds,,GFP-tagged PKA RIIβ (protein kinase A regulatory IIβ subunit) (from UniProt P31323 1-418)
,,binds,endogenous PKA RIIβ subunit of BV2 microglia cells (from UniProt P31324 1-416)
